# Laboratory results: PMC5646206
# By UniProt entry, the sequences of proteins in these tests, tags left out. Where a name states a change or a piece, a line headed by the entry shows the natural chain unless it says otherwise.
# UniProt Q04609: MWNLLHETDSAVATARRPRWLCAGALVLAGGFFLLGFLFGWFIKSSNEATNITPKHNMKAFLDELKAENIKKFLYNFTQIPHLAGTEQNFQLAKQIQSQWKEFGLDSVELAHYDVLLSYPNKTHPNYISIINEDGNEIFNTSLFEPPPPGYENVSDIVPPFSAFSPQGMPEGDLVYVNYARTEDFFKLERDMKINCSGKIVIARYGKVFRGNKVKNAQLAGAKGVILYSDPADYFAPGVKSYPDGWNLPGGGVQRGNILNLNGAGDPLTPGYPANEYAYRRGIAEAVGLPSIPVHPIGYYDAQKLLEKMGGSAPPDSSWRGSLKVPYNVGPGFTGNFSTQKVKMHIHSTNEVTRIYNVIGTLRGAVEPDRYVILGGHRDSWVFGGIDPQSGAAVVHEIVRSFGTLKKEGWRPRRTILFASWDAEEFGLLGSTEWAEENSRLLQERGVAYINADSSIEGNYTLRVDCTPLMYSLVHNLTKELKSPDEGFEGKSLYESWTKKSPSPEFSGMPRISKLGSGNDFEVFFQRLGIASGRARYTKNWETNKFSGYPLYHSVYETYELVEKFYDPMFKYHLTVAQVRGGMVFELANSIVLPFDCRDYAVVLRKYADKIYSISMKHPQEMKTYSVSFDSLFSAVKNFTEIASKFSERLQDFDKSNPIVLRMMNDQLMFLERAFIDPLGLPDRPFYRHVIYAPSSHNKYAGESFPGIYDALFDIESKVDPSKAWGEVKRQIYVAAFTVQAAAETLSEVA
# For at least one entry, the source does not settle the construct or the ends of the probe. At least one result comes from cells or an extract, where the contact may be indirect.
# Target: PSMA (prostate-specific membrane antigen) on LNCaP cells (UniProt Q04609)
# Experiment: two-photon scattering ruler on whole cells (nanoparticle dimer dissociation) and TEM
# Settings: TPS falls about 9% at 5 cells per mL, no change with PSMA(-) HaCaT cells, 3'-(CH2)6-SH, 2'-modifications not stated, ruler hybridized in 10 mM PBS with 0.3 M NaCl, pH and temperature of cell binding not given, protein on the cell surface, label: gold nanoparticle via 3' thiol
sequence,measurement,value
GGGAGGACGAUGCGGACCGAAAAAGACCUGACUUCUAUACUAAGUCUACGUUCCCAGACGACUCGCCCG [A9 aptamer (anti-PSMA) TPS ruler strand],binding result,binds
